According to patent US8242058B2, “Reagents and methods for appending functional groups to proteins” (Wisconsin Alumni Research Foundation, priority 2006, dated 2012):

Assays:
[1] = Huisgen 1,3-dipolar cycloaddition with alkynyl fluorescein 10, SDS-PAGE fluorescence imaging; conditions: Cu(I) catalyst, polytriazole ligand
[2] = Immobilization on phosphinothioester-displaying chips by Staudinger ligation, immunofluorescence detection; conditions: 10 μM in 5% DMF/water

Row | Molecule | fluorescence of the protein after cycloaddition [1] | immobilization on phosphinothioester chips [2]
1 | Met(−1)RNase A-Gly-NHNHCH2C(O)NHCH2CH2N3 [azido-RNase A] | fluorescent | immobilized
2 | wild-type RNase A: bovine pancreatic ribonuclease (RNase A), unmodified wild-type, Sigma Chemical (protein, UniProt P61823 27-150, looked up) Ribonuclease pancreatic: KETAAAKFERQHMDSSTSAASSSNYCNQMMKSRNLTKDRCKPVNTFVHESLADVQAVCSQKNVACKNGQTNCYQSYSTMSITDCRETGSSKYPNCAYKTTQANKHIIVACEGNPYVPVHFDASV | not fluorescent | did not result in any detectable RNase A immobilization
